# The supplement of paper PMC6658780
# Counter-ions that a name gives are not always drawn. ± gives the standard deviation of the averaged measurements. Some of the results follow. This data set is noisy: repeats of one test often differ as much as different tests do.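 The A. baumannii clinical isolates were selected for resistance to the partner antibiotic; the screen seeks drugs that restore its effect. Background from coloured compounds is removed by subtracting the start-of-incubation reading.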
# Tested on: Acinetobacter baumannii WP-487
# Assay: percent growth inhibition of drug alone vs DMSO control; higher = more growth inhibition
# Conditions: antibiotic (0.125x MIC): none (0.1% DMSO); 7 µM
# Method: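 Prestwick drugs tested at 20 uM and 7 uM with an antibiotic at 0.125x MIC (16 mg/L when MIC >128 mg/L) in cation-adjusted Mueller-Hinton broth, 384-well plates, duplicate runs on different days. Percent growth inhibition was computed from OD600 (24 h minus 0 h) relative to DMSO-only wells. Drug + 0.1% DMSO (no antibiotic) wells are also given. Only hits (max corrected inhibition > mean + 3SD) are listed. A. baumannii: NCTC-13301 was used for MEM/CIP/GEN/TGC and WP-487 for colistin. Duplicates with colistin are strongly discordant (run 2 near 100% for most drugs).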
row,Structure (SMILES),percent growth inhibition of drug alone [%]
1,CCc1oc2ccccc2c1C(=O)c1cc(Br)c(O)c(Br)c1 [Benzbromarone],5.19 ± 0.65
2,N#CC(c1ccc(Cl)cc1)c1c(Cl)cc(-n2ncc(=O)[nH]c2=O)cc1Cl (stereo not given) [Diclazuril],3.53 ± 1.4
3,COc1ccccc1N1CCN(CC(O)COc2cccc3ccccc23)CC1 (stereo not given) [Naftopidil dihydrochloride],-0.615 ± 8.1
4,O=C1NCCN1c1ncc([N+](=O)[O-])s1 [Niridazole],-3.2 ± 7.5
5,CCC(C)(C)c1ccc(CC(C)CN2C[C@@H](C)O[C@@H](C)C2)cc1 (stereo not given in full) [Amorolfine hydrochloride],3.36 ± 2.9
6,Fc1ccc(C(c2ccc(F)cc2)N2CCN(C/C=C/c3ccccc3)CC2)cc1 [Flunarizine dihydrochloride],0.857 ± 6.8
7,CC[C@H]1OC(=O)[C@H](C)[C@@H](O[C@H]2C[C@@](C)(OC)[C@@H](O)[C@H](C)O2)[C@H](C)[C@@H](O[C@@H]2O[C@H](C)C[C@H](N(C)C)[C@H]2O)[C@](C)(O)C[C@@H](C)/C(=N\OCOCCOC)[C@H](C)[C@@H](O)[C@]1(C)O [Roxithromycin],42.5 ± 34
8,CC/C(=C(/CC)c1ccc(O)cc1)c1ccc(O)cc1 [Diethylstilbestrol],1.56 ± 7.9
9,COC(=O)C1=C(C)NC(C)=C(C(=O)OC2CCCN(Cc3ccccc3)C2)C1c1cccc([N+](=O)[O-])c1 (stereo not given) [Benidipine hydrochloride],-2.06 ± 3.1
10,Cc1cc(C(C)(C)CC(C)(C)C)ccc1OCCOCC[N+](C)(C)Cc1ccccc1 [Methyl benzethonium chloride],-0.853 ± 4.1
11,CN(C)CCOc1ccc(/C(=C(/CCCl)c2ccccc2)c2ccccc2)cc1 [Toremifene],-2.77 ± 14
12,O=C1NCCN1CCN1CCC(c2cn(-c3ccc(F)cc3)c3ccc(Cl)cc23)CC1 [Sertindole],2.29 ± 5.7
13,CCCCCCCCCCCCCCCC[N+](C)(C)CCN(Cc1ccc(OC)cc1)c1ncccn1 [Thonzonium bromide],0.00908 ± 8.3
14,CN1CCN(CCCN2c3ccccc3Sc3ccc(C(F)(F)F)cc32)CC1 [Trifluoperazine dihydrochloride],-4.73 ± 8.1
15,Cc1onc(-c2c(F)cccc2Cl)c1C(=O)N[C@@H]1C(=O)N2[C@@H]1SC(C)(C)[C@@H]2C(=O)O [Flucloxacillin sodium],4.79 ± 2.4
16,Cc1cccc(C)c1NC(=O)CN1CCN(CCCC(c2ccc(F)cc2)c2ccc(F)cc2)CC1 [Lidoflazine],-1.75 ± 7.5
17,CN(C)CCCN1c2ccccc2CCc2ccc(Cl)cc21 [Clomipramine hydrochloride],-0.466 ± 9.5
18,CN(C)CC/C=C1/c2ccccc2Sc2ccc(Cl)cc21 [Chlorprothixene hydrochloride],0.949 ± 4.9
19,COc1ccc(-c2cc(=S)ss2)cc1 [Anethole-trithione],1.09 ± 3.4
20,"Cc1cn([C@H]2C[C@H](N=[N+]=[N-])[C@@H](CO)O2)c(=O)[nH]c1=O [Zidovudine, AZT]",-2.45 ± 7.7

# Same assay, conditions: antibiotic (0.125x MIC): none (0.1% DMSO); 20 µM
row,Structure (SMILES),percent growth inhibition of drug alone [%]
1,CCc1oc2ccccc2c1C(=O)c1cc(Br)c(O)c(Br)c1 [Benzbromarone],5.22 ± 6.6
2,N#CC(c1ccc(Cl)cc1)c1c(Cl)cc(-n2ncc(=O)[nH]c2=O)cc1Cl (stereo not given) [Diclazuril],-2.27 ± 2.1
3,COc1ccccc1N1CCN(CC(O)COc2cccc3ccccc23)CC1 (stereo not given) [Naftopidil dihydrochloride],0.734 ± 5.1
4,O=C1NCCN1c1ncc([N+](=O)[O-])s1 [Niridazole],-0.525 ± 2.6
5,CCC(C)(C)c1ccc(CC(C)CN2C[C@@H](C)O[C@@H](C)C2)cc1 (stereo not given in full) [Amorolfine hydrochloride],9.37 ± 12
6,Fc1ccc(C(c2ccc(F)cc2)N2CCN(C/C=C/c3ccccc3)CC2)cc1 [Flunarizine dihydrochloride],0.241 ± 3.1
7,CC[C@H]1OC(=O)[C@H](C)[C@@H](O[C@H]2C[C@@](C)(OC)[C@@H](O)[C@H](C)O2)[C@H](C)[C@@H](O[C@@H]2O[C@H](C)C[C@H](N(C)C)[C@H]2O)[C@](C)(O)C[C@@H](C)/C(=N\OCOCCOC)[C@H](C)[C@@H](O)[C@]1(C)O [Roxithromycin],61.5 ± 53
8,CC/C(=C(/CC)c1ccc(O)cc1)c1ccc(O)cc1 [Diethylstilbestrol],0.398 ± 0.9
9,COC(=O)C1=C(C)NC(C)=C(C(=O)OC2CCCN(Cc3ccccc3)C2)C1c1cccc([N+](=O)[O-])c1 (stereo not given) [Benidipine hydrochloride],-2.68 ± 1.2
10,Cc1cc(C(C)(C)CC(C)(C)C)ccc1OCCOCC[N+](C)(C)Cc1ccccc1 [Methyl benzethonium chloride],48.9 ± 59
11,CN(C)CCOc1ccc(/C(=C(/CCCl)c2ccccc2)c2ccccc2)cc1 [Toremifene],0.685 ± 0.48
12,O=C1NCCN1CCN1CCC(c2cn(-c3ccc(F)cc3)c3ccc(Cl)cc23)CC1 [Sertindole],11.9 ± 17
13,CCCCCCCCCCCCCCCC[N+](C)(C)CCN(Cc1ccc(OC)cc1)c1ncccn1 [Thonzonium bromide],81.6 ± 6.1
14,CN1CCN(CCCN2c3ccccc3Sc3ccc(C(F)(F)F)cc32)CC1 [Trifluoperazine dihydrochloride],-5.7 ± 4.3
15,Cc1onc(-c2c(F)cccc2Cl)c1C(=O)N[C@@H]1C(=O)N2[C@@H]1SC(C)(C)[C@@H]2C(=O)O [Flucloxacillin sodium],0.409 ± 0.091
16,Cc1cccc(C)c1NC(=O)CN1CCN(CCCC(c2ccc(F)cc2)c2ccc(F)cc2)CC1 [Lidoflazine],-2.77 ± 3.3
17,CN(C)CCCN1c2ccccc2CCc2ccc(Cl)cc21 [Clomipramine hydrochloride],0.396 ± 2.2
18,CN(C)CC/C=C1/c2ccccc2Sc2ccc(Cl)cc21 [Chlorprothixene hydrochloride],2 ± 0.35
19,COc1ccc(-c2cc(=S)ss2)cc1 [Anethole-trithione],1.97 ± 1
20,"Cc1cn([C@H]2C[C@H](N=[N+]=[N-])[C@@H](CO)O2)c(=O)[nH]c1=O [Zidovudine, AZT]",1.03 ± 3.3
